Source: the supplement of paper PMC12542422
Where a name gives a salt, the structure may show the parent alone. ± gives the standard deviation of the averaged measurements. Some of the results follow. Values are raw readings; no control value is given beside them.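 HeLa cells imaged for ribosome-assembly readouts (ENP1 staining with or without export block, or inducible tagged ribosomal protein reporters); machine learning classified each cell's signal location against solvent (DMSO) controls. Hits exceeded the DMSO false-positive mean by five standard deviations, then were visually confirmed; three biological replicates.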

Tested on: HeLa RPL29-GFP reporter
Experiment: fraction of reporter-positive cells with nuclear (nucleolar or nucleolar/nucleoplasmic) RPL29-GFP (MainHitrate); higher = more cells with nucleolar/nuclear readout signal (for ENP1 -LMB: less RNAPI inhibition; for +LMB ENP1 and RP reporters: stronger nuclear/nucleolar retention, i.e. ribosome biogenesis defect)
Conditions: concentration: 1 µM; treatment time: 6 h

Structure (SMILES)	fraction of reporter-positive cells with nuclear
COc1cc2nc(N3CCN(C(=O)C4CCCO4)CC3)nc(N)c2cc1OC (stereo not drawn) [Terazosin HCl (Hytrin)]	0.232 ± 0.13
C=CCc1cc(OC)c(O)c(C(=O)NCCO)c1 [Alibendol]	0.21 ± 0.061
CC(=O)N1CCN(c2ccc(OCC3COC(Cn4ccnc4)(c4ccc(Cl)cc4Cl)O3)cc2)CC1 (stereo not drawn) [Ketoconazole]	0.205 ± 0.091
N#C[C@@H]1CCCN1C(=O)CNC12CC3CC(CC(O)(C3)C1)C2 [Vildagliptin (LAF-237)]	0.201 ± 0.088
O=C(O)C1(C(=O)O)CCC1.[NH2-].[NH2-].[Pt+2] [Carboplatin]	0.204 ± 0.058
Cc1cn([C@H]2C[C@H](N=[N+]=[N-])[C@@H](CO)O2)c(=O)[nH]c1=O [Zidovudine (Retrovir)]	0.211 ± 0.067
O=P(O)(O)C(O)(Cc1cccnc1)P(=O)(O)O [Risedronate sodium]	0.198 ± 0.085
CC(C)Cc1ccc(C(C)C(=O)O)cc1 (stereo not drawn) [Ibuprofen (Advil)]	0.199 ± 0.074
CN(C)CCN1C(=O)c2ccccc2N(C)c2ccccc21 [Dibenzepine HCl]	0.317 ± 0.21
CN[C@@H]1[C@H](O)[C@H](NC)[C@H]2O[C@@]3(O)C(=O)C[C@@H](C)O[C@H]3O[C@@H]2[C@H]1O [Spectinomycin  hydrochloride]	0.226 ± 0.086
CCCN(CCC)CCc1cccc2c1CC(=O)N2 [Ropinirole HCl]	0.23 ± 0.067
COc1ccc(-c2ccc3cc(C(=O)O)ccc3c2)cc1C12CC3CC(CC(C3)C1)C2 [Adapalene]	0.225 ± 0.069
Nc1ccn([C@H]2CC[C@@H](CO)O2)c(=O)n1 [Zalcitabine]	0.194 ± 0.076

Quoted at random: 2 entries already listed.
Structure (SMILES)	fraction of reporter-positive cells with nuclear
C=CCc1cc(OC)c(O)c(C(=O)NCCO)c1 [Alibendol]	0.21 ± 0.061
COc1cc2nc(N3CCN(C(=O)C4CCCO4)CC3)nc(N)c2cc1OC (stereo not drawn) [Terazosin HCl (Hytrin)]	0.232 ± 0.13
